Assay results taken from the supplement of paper PMC11348887.
Where a name gives a salt, the structure may show the parent alone. The list shows a part of the results. Small differences around the control level are noise.

The compounds below were run on hPSC-derived cortical neurons (WA09) (assay: total neurite length per nucleus (MAP2) z-score; higher = more neurite growth). Details: 5 µM; treatment: days 7-14 after plating, readout day 21.
`CC(C)c1ccc2c(c1)c(SC(C)(C)C)c(CC(C)(C)C(=O)O)n2Cc1ccc(Cl)cc1` was tested, and the “total neurite length per nucleus (z-score)” value was 0.32. In the case of `CCCSc1ccc2[nH]c(NC(=O)OC)nc2c1` [Albendazole], the “total neurite length per nucleus (z-score)” value is reported as -0.516. For `CCN1CCCC1CNC(=O)c1cc(S(N)(=O)=O)ccc1OC` (stereo unspecified) [Sulpiride], the “total neurite length per nucleus (z-score)” value was -1.38. In the case of `C[C@H](Cn1cnc2c(N)ncnc21)OCP(=O)(O)O` [Tenofovir], the “total neurite length per nucleus (z-score)” value is reported as -0.0106. `CCc1cc2c(cc1CC)CC(NC[C@H](O)c1ccc(O)c3[nH]c(=O)ccc13)C2` [Indacaterol Maleate] was tested, and the “total neurite length per nucleus (z-score)” value was -0.4. With `O=C(Cc1cccc(OC(F)(F)F)c1)Nc1ccc(CCCCc2nnc(NC(=O)Cc3ccccn3)s2)nn1` the “total neurite length per nucleus (z-score)” value was 0.0552. With `COCCOc1ccc2c(c1)ncn2-c1ccc2cccc(N3CCC(N)CC3)c2n1` the “total neurite length per nucleus (z-score)” value was -1.26. For `CC1(C)S[C@@H]2[C@H](NC(=O)[C@H](N)c3ccc(O)cc3)C(=O)N2[C@H]1C(=O)O` [Amoxicillin Sodium], the “total neurite length per nucleus (z-score)” value was -0.105. With `CN(C/C=C/C#CC(C)(C)C)Cc1cccc2ccccc12` [Terbinafine] the “total neurite length per nucleus (z-score)” value was -0.31. With `COc1ccc(C2CC(c3ccccc3)=NN2c2ccc(S(N)(=O)=O)cc2)cc1` (stereo unspecified) the “total neurite length per nucleus (z-score)” value was 0.0266. In the case of `Cn1cc(-c2ccc3c(c2)CCN3C(=O)Cc2cccc(C(F)(F)F)c2)c2c(N)ncnc21`, the “total neurite length per nucleus (z-score)” value is reported as 1.04.

Each compound was assayed on hPSC-derived cortical neurons (WA09) (assay: nucleus roundness z-score vs screen plate; higher = rounder nuclei (more mature)). Details: 5 µM; treatment: days 7-14 after plating, readout day 21.
Compound `CCNC(=O)c1noc(-c2cc(C(C)C)c(O)cc2O)c1-c1ccc(CN2CCOCC2)cc1` has a nucleus roundness z-score of 0.0424. Compound `CC(C)C[C@H](NP(=O)(O)O[C@@H]1O[C@@H](C)[C@H](O)[C@@H](O)[C@H]1O)C(=O)N[C@@H](Cc1c[nH]c2ccccc12)C(=O)O` [Phosphoramidon Disodium Salt] has a nucleus roundness z-score of 0.385. `OC[C@@H](O)[C@@H](O)CO` [Erythritol] showed a nucleus roundness z-score of 0.161. `CN(Cc1ccc(C(C)(C)C)cc1)Cc1cccc2ccccc12` [Butenafine HCl] showed a nucleus roundness z-score of 1.02. Compound `COC(=O)Nc1nc2cc(C(=O)c3ccccc3)ccc2[nH]1` [Mebendazole] has a nucleus roundness z-score of -1.06. `CN1CCN(CCOc2cc(OC3CCOCC3)c3c(Nc4c(Cl)ccc5c4OCO5)ncnc3c2)CC1` [Saracatinib (AZD0530)] gave a nucleus roundness z-score of -0.361. `CN(N=O)C(=O)NC1C(O)OC(CO)C(O)C1O` (stereo unspecified) [Streptozotocin (STZ)] gave a nucleus roundness z-score of 0.633. Compound `C[C@]12CCC(=O)C=C1CC[C@@H]1[C@@H]2[C@@H](O)C[C@@]2(C)[C@H]1CC[C@]2(O)C(=O)CO` [Hydrocortisone] has a nucleus roundness z-score of 0.822. In the case of `CC[C@H]1OC(=O)[C@H](C)[C@@H](O[C@H]2C[C@@](C)(OC)[C@@H](O)[C@H](C)O2)[C@H](C)[C@@H](O[C@@H]2O[C@H](C)C[C@H](N(C)C)[C@H]2O)[C@](C)(O)C[C@@H](C)C(=O)[C@H](C)[C@H]2OC(=O)O[C@@]21C` [Erythromycin Cyclocarbonate], the nucleus roundness z-score is reported as 0.369. `CCC(=O)OCC(=O)[C@@]1(OC(=O)CC)[C@@H](C)C[C@H]2[C@@H]3CCC4=CC(=O)C=C[C@]4(C)[C@@]3(F)[C@@H](O)C[C@@]21C` [Betamethasone Dipropionate] gave a nucleus roundness z-score of -0.0856. With `CC(=O)O[C@H]1C(=O)[C@@]2(C)[C@H]([C@H](OC(=O)c3ccccc3)[C@]3(O)C[C@H](OC(=O)[C@H](O)[C@@H](NC(=O)c4ccccc4)c4ccccc4)C(C)=C1C3(C)C)[C@]1(OC(C)=O)CO[C@@H]1C[C@@H]2O` [Paclitaxel] the nucleus roundness z-score was -1.23. Work on `CCCCN(Cc1ccc(C(=O)NO)cc1)C(=O)Nc1ccccc1` [Nexturastat A] yielded a nucleus roundness z-score of 0.0962. Work on `Cc1ccc(NC(=O)c2ccc(CN3CCN(C)CC3)cc2)cc1Nc1nccc(-c2cccnc2)n1` [Imatinib (STI571)] yielded a nucleus roundness z-score of -0.519. Compound `CNCc1ccc(-c2cc(-c3nc(-c4ccc(S(=O)(=O)C(C)C)cc4)cnc3N)on2)cc1` has a nucleus roundness z-score of -5.08. With `O=C(O)CNC(=O)c1nc(Cl)c2ccccc2c1O` the nucleus roundness z-score was 0.407. Work on `CCCCCCCCCCCCCCCCCCOP(=O)([O-])OC1CC[N+](C)(C)CC1` [Perifosine (KRX-0401)] yielded a nucleus roundness z-score of 1.22. Work on `C[C@H]1O[C@H](O[C@H]2[C@H](O)[C@@H](O)[C@@H](O[C@H]3[C@H](O)[C@@H](O)C(O)O[C@@H]3CO)O[C@@H]2CO)[C@H](O)[C@@H](O)[C@@H]1N[C@H]1C=C(CO)[C@@H](O)[C@H](O)[C@H]1O` (stereo partly specified) [Acarbose] yielded a nucleus roundness z-score of -0.0806. Work on `Cc1cc(OCCCS(C)(=O)=O)cc(C)c1-c1cccc(COc2ccc3c(c2)OC[C@H]3CC(=O)O)c1` yielded a nucleus roundness z-score of -0.715. Work on `CCOC(=O)[C@H](CCc1ccccc1)N[C@@H](C)C(=O)N1C(=O)N(C)C[C@H]1C(=O)O` [Imidapril HCl] yielded a nucleus roundness z-score of 0.646. With `CCCC(=O)Nc1ccc(OCC(O)CNC(C)C)c(C(C)=O)c1` (stereo unspecified) [Acebutolol HCl] the nucleus roundness z-score was 0.794. For `CN1C(C(=O)Nc2ccccn2)=C(O)c2ccccc2S1(=O)=O` [Piroxicam], the nucleus roundness z-score was -0.933. `Cc1ccc(C(=O)c2ccc(CC(=O)O)n2C)cc1` [Tolmetin Sodium] gave a nucleus roundness z-score of 0.289. `C[C@@H]1[C@H](O)[C@@H](C)/C=C/C=C/C=C/C=C/C=C/C=C/C=C/[C@H](O[C@@H]2O[C@H](C)[C@@H](O)[C@H](N)[C@@H]2O)C[C@@H]2O[C@](O)(C[C@@H](O)C[C@@H](O)[C@H](O)CC[C@@H](O)C[C@@H](O)CC(=O)O[C@H]1C)C[C@H](O)[C@H]2C(=O)O` [Amphotericin B] was tested, and the nucleus roundness z-score was 0.152. `[I-].[K+]` [Potassium Iodide] gave a nucleus roundness z-score of -0.12. With `CN(CCOc1ccc(CC2SC(=O)NC2=O)cc1)c1ccccn1` (stereo unspecified) [Rosiglitazone] the nucleus roundness z-score was -0.118. `CCn1c(-c2nonc2N)nc2c(C#CC(C)(C)O)ncc(OC[C@H]3CCCNC3)c21` showed a nucleus roundness z-score of -0.95. For `O=C(O)/C=C/c1ccc(Cn2ccnc2)cc1` [Ozagrel HCl], the nucleus roundness z-score was -0.315. `NC(CO)(CO)CO` [Trometamol] showed a nucleus roundness z-score of -0.0767. Work on `Nc1ccc(S(=O)(=O)Nc2ncccn2)cc1` [Sulfadiazine] yielded a nucleus roundness z-score of -0.855. `CC(C)c1ccc2c(c1)c(SC(C)(C)C)c(CC(C)(C)C(=O)O)n2Cc1ccc(Cl)cc1` gave a nucleus roundness z-score of 0.893. Compound `CCCSc1ccc2[nH]c(NC(=O)OC)nc2c1` [Albendazole] has a nucleus roundness z-score of 0.427. `CCN1CCCC1CNC(=O)c1cc(S(N)(=O)=O)ccc1OC` (stereo unspecified) [Sulpiride] showed a nucleus roundness z-score of -0.418. In the case of `C[C@H](Cn1cnc2c(N)ncnc21)OCP(=O)(O)O` [Tenofovir], the nucleus roundness z-score is reported as -0.352. `CCc1cc2c(cc1CC)CC(NC[C@H](O)c1ccc(O)c3[nH]c(=O)ccc13)C2` [Indacaterol Maleate] gave a nucleus roundness z-score of 0.0633. For `O=C(Cc1cccc(OC(F)(F)F)c1)Nc1ccc(CCCCc2nnc(NC(=O)Cc3ccccn3)s2)nn1`, the nucleus roundness z-score was 0.206. For `COCCOc1ccc2c(c1)ncn2-c1ccc2cccc(N3CCC(N)CC3)c2n1`, the nucleus roundness z-score was -0.272. Compound `CC1(C)S[C@@H]2[C@H](NC(=O)[C@H](N)c3ccc(O)cc3)C(=O)N2[C@H]1C(=O)O` [Amoxicillin Sodium] has a nucleus roundness z-score of 0.191. Work on `CN(C/C=C/C#CC(C)(C)C)Cc1cccc2ccccc12` [Terbinafine] yielded a nucleus roundness z-score of -0.0225. Compound `COc1ccc(C2CC(c3ccccc3)=NN2c2ccc(S(N)(=O)=O)cc2)cc1` (stereo unspecified) has a nucleus roundness z-score of 0.0678. Compound `Cn1cc(-c2ccc3c(c2)CCN3C(=O)Cc2cccc(C(F)(F)F)c2)c2c(N)ncnc21` has a nucleus roundness z-score of -1.31.
